Literature values, collected in EP0343268A1, “Pharmaceutical composition and process for preparing the same” (BIOGAL GYOGYSZERGYAR, priority 1988, dated 1989).

Conditions: in the presence of sulfhydryl-containing compounds, particularly acetylcysteine; cited from earlier work

In the case of `CC1=C(C(=O)O)N2C(=O)[C@@H](NC(=O)[C@H](N)c3ccccc3)[C@H]2SC1` [cephalexin], the “absorption from the stomach” value is given as “certain but not significant extent of retardation”.
